Test system: ras-family cancer-related gene product
Experiment: Living body staining of large intestine inner wall with stain containing phloxine, multiphoton laser microscope imaging
Format: in vivo, laboratory mouse

SMILES: O=C([O-])c1c(Cl)c(Cl)c(Cl)c(Cl)c1-c1c2cc(Br)c(=O)c(Br)c-2oc2c(Br)c([O-])c(Br)cc12.[Na+].[Na+] [phloxine]
- ratio of the region stained in the red fluorescence color to the entire screen (region dominated by ras-family cancer-related gene expression) (specimen 1, site where cancer cells developed, FIG. 2A (b), 1 wt % phloxine, 840 nm): 80%
- ratio of the region stained in the red fluorescence color to the entire screen (ras-family cancer-related gene expression) (specimen 2, FIG. 2B (b)): 90%
- ratio of the region stained in the red fluorescence color to the entire screen (ras-family cancer-related gene expression) (specimen 3, FIG. 2C (b)): 75%
- red fluorescence color in the screen (specimen 4, healthy living cells, FIG. 3): no green, red, or yellow fluorescence color is present in the screen
